# At least one compound was matched to its structure with a doubt left.
# Protein sequences, listed by entry. Tags and fused reporters are not part of them. Residues count along the entry.
# UniProt O94759, 3-1503 Q1189R: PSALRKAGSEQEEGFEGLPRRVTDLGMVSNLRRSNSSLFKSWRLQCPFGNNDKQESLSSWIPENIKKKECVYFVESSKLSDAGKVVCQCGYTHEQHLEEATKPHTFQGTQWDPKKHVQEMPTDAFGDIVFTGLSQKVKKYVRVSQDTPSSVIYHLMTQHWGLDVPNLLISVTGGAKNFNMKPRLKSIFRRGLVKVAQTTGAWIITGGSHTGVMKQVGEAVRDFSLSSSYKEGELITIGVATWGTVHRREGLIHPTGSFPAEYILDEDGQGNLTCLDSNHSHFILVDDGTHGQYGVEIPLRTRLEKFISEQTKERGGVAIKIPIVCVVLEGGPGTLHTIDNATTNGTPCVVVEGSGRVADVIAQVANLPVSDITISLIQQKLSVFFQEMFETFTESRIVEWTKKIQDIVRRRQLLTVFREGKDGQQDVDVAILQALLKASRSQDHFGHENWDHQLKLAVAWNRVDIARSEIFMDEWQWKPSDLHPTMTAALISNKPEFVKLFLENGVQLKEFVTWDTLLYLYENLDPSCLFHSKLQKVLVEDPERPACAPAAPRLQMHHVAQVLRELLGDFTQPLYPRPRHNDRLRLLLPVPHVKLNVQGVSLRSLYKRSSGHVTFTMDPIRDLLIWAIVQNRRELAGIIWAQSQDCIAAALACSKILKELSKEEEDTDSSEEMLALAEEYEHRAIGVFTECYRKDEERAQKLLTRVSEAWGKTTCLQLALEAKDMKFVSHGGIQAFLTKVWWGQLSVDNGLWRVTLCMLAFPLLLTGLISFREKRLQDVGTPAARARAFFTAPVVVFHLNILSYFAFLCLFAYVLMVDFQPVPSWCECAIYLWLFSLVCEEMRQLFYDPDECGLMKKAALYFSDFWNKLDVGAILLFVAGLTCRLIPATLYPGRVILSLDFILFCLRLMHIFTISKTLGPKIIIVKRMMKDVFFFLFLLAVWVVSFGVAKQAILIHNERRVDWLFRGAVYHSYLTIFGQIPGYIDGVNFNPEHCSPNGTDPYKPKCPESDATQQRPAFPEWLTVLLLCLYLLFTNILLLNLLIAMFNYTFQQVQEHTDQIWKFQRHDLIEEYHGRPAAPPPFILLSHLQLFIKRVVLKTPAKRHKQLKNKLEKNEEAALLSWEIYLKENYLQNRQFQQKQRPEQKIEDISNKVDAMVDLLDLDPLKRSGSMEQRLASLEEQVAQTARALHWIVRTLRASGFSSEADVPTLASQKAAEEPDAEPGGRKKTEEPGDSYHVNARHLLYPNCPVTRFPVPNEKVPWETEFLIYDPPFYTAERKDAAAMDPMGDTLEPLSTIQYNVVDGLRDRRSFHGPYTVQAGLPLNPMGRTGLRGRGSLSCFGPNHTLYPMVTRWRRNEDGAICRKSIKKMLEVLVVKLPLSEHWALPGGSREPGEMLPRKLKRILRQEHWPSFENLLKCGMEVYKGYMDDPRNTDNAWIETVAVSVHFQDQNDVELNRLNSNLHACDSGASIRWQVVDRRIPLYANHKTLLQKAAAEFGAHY
# Molecular target: T1, TrpC7 (Homo sapiens, UniProt O94759, Q1189R)
# T1 construct: expressed in transfected cells; host or cells: HEK293 cells expressing the tetracycline repressor (pcDNA6/TR); construct in pcDNA4/TO
# Test: Whole-cell patch-clamp of membrane currents in tetracycline-inducible HEK293 cells expressing FLAG-TrpC7
# Assay type: cell-based
# Conditions: 100 μM in patch pipette, after tetracycline induction, currents at -80 mV
# Experimental: Wild type and tetracycline-inducible HEK293 FLAG-TrpC7 expressing cells were cultured at 37° C./5% CO2 in DMEM supplemented with 10% FBS and 2 mM glutamine. The medium was supplemented with blasticidin (5 μg/ml; Invitrogen) and zeocin (0.4 mg/ml; Invitrogen). Cells were resuspended in media containing 1 μg/ml tetracycline (Invitrogen) 24 hours before patch-clamp experiments.
# For patch-clamp experiments, coverslips were transferred to the recording chamber and kept in a standard modified Ringer's solution of the following composition (in mM): NaCl 145, KCl 2.8, CaCl2 1, MgCl2 2, glucose 10, Hepes-NaOH 10, pH 7.2. Intracellular pipette-filling solutions contained (in mM): Cs-glutamate 145, NaCl 8, MgCl2 1, Cs-BAPTA 10, pH 7.2 adjusted with CsOH. […] The agonists were dissolved in the standard intracellular solution. Ionomycin (Sigma) was added to the extracellular standard solution.
# Patch-clamp experiments were performed in the tight-seal whole-cell configuration at 21-25° C. High-resolution current recordings were acquired by a computer-based patch-clamp amplifier system (EPC-9, HEKA, Lambrecht, Germany). […] Capacitive currents and series resistance were determined and corrected before each voltage ramp using the automatic capacitance compensation of the EPC-9. […]
structure (smiles),measurement,value
"NC(=O)c1ccc[n+]([C@@H]2O[C@H](COP(=O)([O-])OP(=O)(O)OC[C@H]3O[C@@H](n4cnc5c(N)ncnc54)[C@H](O)[C@@H]3O)[C@@H](O)[C@H]2O)c1 [NAD, nicotinamide adenine dinucleotide]",gating of TrpC7 / induced plasma membrane currents,no detectable gating
